According to patent EP2077109A1, “AMIDE COMPOUND, SALT THEREOF, AND BIOFILM REMOVER USING THEM” (The University of Tokyo, priority 2006, dated 2008):
At least one compound was matched to its structure with a doubt left. Some entries repeat one wording, which the source may state once for all of them.

system: Porphyromonas gingivalis 381-strain (clinical bacteria); assay: Evaluation test for effectiveness in removing biofilms formed by periodontitis pathogenic bacteria (flow cell system, optical microscope); assay type: cell-based; conditions: same experiment as Experiment Example 1 (test liquid 100µM), 10 days

SMILES	biofilm removal (state of the biofilm observed with an optical microscope)
CCCC(=O)CC(=O)Nc1ncccc1O [Compound 1c-1, N-(3-hydroxypyridine-2-yl)-3-oxohexanoylamide]	nearly the entire biofilm was removed in 10 days
CCCCCCCCCC(=O)CC(=O)Nc1ccc(O)cc1C [Compound 1b-1, N-(4-hydroxy-2-methylphenyl)-3-oxododecanoyl amide]	nearly the entire biofilm was removed in 10 days
CCCCCCCCCC(=O)CC(=O)NN1CCCC1 [Compound 1a-1, N-(pyrrolidin-1-yl)-3-oxododecanoyl amide]	nearly the entire biofilm was removed in 10 days
CCCCCCCCCC(=O)CC(=O)NN1CCCCC1 [Compound 1a-2, N-(piperidine-1-yl)-3-oxododecanoyl amide]	nearly the entire biofilm was removed in 10 days
